# The list shows a part of the results.
# Amino acid sequences for entries named in this document (tags omitted). A change or cut given only in a name is not applied to a line headed by its entry.
# UniProt Q8N8R5: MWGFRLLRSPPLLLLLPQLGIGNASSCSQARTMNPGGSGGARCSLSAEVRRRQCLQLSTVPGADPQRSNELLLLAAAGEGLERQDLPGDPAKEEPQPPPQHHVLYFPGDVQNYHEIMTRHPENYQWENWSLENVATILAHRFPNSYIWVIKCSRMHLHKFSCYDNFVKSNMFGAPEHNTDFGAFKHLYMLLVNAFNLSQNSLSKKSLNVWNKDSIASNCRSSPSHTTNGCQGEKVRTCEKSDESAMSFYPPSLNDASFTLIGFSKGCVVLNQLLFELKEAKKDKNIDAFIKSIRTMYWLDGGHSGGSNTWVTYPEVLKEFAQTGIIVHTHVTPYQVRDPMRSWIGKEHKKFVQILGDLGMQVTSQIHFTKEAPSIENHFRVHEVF
# UniProt P01024, whole entry, looked up: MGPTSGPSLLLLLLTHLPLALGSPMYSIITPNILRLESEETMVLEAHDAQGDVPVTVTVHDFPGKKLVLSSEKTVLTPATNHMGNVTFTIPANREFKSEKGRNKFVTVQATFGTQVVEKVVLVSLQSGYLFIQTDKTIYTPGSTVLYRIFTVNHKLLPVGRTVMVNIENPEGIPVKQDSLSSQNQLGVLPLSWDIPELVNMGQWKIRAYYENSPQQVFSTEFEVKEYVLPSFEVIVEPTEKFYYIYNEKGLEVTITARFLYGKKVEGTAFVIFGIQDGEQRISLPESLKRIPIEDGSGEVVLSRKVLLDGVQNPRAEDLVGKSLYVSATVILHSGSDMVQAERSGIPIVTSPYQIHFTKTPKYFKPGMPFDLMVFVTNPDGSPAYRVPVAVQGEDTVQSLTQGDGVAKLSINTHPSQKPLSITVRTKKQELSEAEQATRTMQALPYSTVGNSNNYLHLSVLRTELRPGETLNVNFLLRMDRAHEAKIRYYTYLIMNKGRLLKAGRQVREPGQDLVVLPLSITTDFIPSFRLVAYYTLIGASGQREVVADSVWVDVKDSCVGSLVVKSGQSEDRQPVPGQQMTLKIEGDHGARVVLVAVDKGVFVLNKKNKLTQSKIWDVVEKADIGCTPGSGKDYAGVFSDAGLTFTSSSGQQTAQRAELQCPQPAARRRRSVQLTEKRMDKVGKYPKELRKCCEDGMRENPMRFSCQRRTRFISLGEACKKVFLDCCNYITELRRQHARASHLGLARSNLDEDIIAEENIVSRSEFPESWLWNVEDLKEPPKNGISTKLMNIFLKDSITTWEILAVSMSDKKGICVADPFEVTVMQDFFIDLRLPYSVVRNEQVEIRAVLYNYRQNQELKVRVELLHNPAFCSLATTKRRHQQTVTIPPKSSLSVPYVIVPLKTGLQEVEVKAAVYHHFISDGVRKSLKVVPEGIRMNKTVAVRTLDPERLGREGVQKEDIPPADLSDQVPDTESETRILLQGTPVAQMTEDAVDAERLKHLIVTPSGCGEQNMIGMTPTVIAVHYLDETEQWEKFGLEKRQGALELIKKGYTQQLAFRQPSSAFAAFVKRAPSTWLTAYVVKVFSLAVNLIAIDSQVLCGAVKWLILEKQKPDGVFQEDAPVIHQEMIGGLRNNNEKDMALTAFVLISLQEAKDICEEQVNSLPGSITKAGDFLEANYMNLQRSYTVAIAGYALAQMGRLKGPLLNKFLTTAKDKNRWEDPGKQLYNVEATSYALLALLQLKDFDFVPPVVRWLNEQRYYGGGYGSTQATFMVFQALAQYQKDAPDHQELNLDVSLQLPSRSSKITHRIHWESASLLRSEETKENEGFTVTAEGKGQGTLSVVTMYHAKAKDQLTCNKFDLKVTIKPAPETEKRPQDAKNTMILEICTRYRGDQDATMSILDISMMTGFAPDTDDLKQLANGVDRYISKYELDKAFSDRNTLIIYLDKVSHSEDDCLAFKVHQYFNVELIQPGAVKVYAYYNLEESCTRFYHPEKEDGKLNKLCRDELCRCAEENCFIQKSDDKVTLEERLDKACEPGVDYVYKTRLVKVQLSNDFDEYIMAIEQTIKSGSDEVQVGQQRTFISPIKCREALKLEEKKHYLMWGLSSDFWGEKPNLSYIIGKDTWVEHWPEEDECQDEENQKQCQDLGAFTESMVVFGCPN
# UniProt Q07021: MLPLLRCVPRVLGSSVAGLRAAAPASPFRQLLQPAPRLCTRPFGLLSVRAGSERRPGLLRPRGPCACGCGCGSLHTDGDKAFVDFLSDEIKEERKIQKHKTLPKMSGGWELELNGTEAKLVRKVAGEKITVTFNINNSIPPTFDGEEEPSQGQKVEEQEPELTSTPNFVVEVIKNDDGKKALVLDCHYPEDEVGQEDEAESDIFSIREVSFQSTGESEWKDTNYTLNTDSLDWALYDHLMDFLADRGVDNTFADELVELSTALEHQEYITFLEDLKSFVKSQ
# UniProt Q9H3J6: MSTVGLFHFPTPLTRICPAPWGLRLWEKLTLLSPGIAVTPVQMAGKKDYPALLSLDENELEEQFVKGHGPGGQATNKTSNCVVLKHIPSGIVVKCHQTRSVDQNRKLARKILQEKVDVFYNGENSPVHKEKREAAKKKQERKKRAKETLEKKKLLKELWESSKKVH
# UniProt P04632: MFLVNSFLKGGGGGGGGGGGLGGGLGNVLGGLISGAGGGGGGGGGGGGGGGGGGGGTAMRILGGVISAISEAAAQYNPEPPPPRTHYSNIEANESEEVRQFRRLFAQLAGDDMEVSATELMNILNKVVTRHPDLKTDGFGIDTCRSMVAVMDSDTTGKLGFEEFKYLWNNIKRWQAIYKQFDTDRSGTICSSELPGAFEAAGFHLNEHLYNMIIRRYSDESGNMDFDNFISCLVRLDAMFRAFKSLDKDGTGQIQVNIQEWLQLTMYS
# UniProt Q8N5S9: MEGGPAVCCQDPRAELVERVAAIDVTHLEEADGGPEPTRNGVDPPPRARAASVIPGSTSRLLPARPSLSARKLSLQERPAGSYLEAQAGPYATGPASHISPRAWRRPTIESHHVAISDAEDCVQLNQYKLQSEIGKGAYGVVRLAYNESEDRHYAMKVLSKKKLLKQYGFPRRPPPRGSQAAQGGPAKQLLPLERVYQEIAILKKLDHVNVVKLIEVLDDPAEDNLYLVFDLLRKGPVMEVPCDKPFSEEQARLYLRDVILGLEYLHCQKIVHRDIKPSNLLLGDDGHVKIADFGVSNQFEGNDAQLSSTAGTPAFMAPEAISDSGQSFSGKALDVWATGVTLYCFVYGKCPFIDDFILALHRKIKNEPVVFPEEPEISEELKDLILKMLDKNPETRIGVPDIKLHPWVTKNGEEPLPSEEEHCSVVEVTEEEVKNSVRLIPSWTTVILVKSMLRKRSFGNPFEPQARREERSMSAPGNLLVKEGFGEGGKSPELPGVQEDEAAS
# UniProt P49069: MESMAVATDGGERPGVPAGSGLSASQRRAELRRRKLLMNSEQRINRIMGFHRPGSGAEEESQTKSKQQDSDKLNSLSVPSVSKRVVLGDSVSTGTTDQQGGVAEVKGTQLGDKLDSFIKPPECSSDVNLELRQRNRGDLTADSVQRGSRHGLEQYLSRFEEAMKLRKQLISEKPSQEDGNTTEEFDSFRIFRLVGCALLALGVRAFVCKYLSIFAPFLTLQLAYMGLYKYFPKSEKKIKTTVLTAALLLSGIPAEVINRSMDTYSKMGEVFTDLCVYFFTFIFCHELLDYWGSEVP
# UniProt Q49AR2: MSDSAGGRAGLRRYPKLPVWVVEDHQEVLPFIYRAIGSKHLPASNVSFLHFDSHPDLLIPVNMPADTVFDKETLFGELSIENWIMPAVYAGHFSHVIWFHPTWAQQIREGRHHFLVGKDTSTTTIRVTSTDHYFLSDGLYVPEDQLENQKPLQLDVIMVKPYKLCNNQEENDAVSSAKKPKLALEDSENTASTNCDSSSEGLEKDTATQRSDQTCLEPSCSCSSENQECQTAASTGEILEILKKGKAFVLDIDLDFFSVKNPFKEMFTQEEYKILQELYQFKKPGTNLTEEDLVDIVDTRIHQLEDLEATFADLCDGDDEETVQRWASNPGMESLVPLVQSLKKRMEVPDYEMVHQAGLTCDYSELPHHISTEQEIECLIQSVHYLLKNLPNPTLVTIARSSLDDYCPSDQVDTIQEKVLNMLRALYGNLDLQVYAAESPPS
# UniProt Q9BRJ6: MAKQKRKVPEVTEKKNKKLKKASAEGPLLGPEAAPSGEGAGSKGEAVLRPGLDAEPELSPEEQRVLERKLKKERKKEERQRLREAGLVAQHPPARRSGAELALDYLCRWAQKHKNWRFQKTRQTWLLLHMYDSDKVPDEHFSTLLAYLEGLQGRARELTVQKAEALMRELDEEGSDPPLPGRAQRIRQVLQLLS
# UniProt P07384: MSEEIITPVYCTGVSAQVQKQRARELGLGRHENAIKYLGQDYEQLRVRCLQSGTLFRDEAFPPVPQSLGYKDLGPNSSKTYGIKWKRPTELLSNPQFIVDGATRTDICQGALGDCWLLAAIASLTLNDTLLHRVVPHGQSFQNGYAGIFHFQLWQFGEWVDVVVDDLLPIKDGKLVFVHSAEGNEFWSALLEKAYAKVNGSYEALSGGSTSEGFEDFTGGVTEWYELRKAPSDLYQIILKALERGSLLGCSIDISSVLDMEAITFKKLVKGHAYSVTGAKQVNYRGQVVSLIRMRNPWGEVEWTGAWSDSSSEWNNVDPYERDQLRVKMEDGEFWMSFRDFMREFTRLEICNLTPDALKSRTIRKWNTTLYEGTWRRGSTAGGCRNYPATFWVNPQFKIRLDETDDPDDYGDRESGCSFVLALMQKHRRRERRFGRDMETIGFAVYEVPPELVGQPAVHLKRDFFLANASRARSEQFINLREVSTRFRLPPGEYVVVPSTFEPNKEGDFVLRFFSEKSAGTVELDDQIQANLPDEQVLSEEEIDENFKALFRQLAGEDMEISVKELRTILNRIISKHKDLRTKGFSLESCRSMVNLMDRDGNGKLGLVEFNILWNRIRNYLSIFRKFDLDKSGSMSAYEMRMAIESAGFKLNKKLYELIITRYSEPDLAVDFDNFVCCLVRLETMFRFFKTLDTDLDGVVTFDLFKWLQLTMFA
# UniProt O60566, whole entry, looked up: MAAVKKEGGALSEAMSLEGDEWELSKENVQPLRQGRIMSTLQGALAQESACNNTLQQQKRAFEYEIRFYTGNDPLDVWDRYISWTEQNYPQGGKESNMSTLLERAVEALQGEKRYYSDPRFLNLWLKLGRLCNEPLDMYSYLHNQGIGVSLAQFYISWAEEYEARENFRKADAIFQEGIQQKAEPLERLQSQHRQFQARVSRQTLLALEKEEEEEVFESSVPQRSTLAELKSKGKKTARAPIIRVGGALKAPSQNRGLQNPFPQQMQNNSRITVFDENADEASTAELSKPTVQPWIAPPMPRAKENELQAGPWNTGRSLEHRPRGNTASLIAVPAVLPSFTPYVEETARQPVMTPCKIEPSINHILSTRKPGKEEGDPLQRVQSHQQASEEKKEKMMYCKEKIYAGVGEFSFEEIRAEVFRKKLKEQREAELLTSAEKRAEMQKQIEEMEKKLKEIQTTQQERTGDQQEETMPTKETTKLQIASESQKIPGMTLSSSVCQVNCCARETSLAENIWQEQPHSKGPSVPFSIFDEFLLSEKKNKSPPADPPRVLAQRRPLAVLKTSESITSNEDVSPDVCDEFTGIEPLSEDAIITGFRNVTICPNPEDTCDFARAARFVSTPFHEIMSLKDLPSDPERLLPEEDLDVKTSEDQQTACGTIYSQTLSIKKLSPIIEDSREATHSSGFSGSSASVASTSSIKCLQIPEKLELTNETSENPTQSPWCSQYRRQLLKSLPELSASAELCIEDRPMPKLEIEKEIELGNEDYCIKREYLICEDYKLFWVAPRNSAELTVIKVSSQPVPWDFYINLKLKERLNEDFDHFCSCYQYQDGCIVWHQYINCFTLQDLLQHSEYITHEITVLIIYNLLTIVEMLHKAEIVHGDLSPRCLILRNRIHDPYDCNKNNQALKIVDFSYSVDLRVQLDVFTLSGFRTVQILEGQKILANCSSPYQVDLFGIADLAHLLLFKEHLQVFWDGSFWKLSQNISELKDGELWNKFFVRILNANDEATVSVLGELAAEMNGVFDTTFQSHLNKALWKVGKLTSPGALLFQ
# UniProt Q9HB71, whole entry, looked up: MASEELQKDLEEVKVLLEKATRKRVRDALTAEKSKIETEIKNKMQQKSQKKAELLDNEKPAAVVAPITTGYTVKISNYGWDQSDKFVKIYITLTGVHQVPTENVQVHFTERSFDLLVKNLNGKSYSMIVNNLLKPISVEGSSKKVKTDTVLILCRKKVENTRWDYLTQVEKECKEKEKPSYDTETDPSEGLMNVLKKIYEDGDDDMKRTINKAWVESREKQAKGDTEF
# UniProt Q8N5I9: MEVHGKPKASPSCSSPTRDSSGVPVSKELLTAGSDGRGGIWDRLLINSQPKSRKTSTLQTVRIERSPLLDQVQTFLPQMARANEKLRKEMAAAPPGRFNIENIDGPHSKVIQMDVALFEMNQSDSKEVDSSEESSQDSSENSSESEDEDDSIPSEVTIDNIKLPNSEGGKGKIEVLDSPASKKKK
# UniProt Q9BV19: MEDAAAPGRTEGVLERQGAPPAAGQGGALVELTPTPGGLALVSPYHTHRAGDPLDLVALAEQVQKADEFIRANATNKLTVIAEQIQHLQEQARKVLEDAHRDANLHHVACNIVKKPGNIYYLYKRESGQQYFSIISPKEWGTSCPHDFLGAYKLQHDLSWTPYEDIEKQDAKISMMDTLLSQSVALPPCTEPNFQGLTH
# Experiments:
# Test in all cases: log2 fold change, soluble protein after heating vs DMSO (PISA); higher = thermal stabilisation; K562 lysate, 10 uM; active = over 0.2 and 3.5 SD of the protein, either way, in both replicates (recomputed)
# alvocidib = compound: CN1CC[C@H](c2c(O)cc(O)c3c(=O)cc(-c4ccccc4Cl)oc23)[C@H](O)C1 [alvocidib]
# Procedure, shortened: (§1)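 Dounce homogenisation of K562 pellets in PBS pH 7.4 with 1 mM MgCl2 produced a crude extract, used at 1 mg/mL protein. Exposure to 10 μM compound lasted 30 min, and aliquots were then heated for 3 min across 48°C-58°C, pooled and brought to 0.5% NP-40 at 4°C. The supernatant after 21,000xg for 90 min was quantified by TMTpro 16plex LC-MS/MS with channel sums equalised. Duplicate values are given as log-two fold change in thermal stability relative to solvent controls.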
# Tubastatin A = compound: CN1CCc2c(c3ccccc3n2Cc2ccc(C(=O)NO)cc2)C1 [Tubastatin A]
# Procedure, shortened: as §1
# [1] = compound: CNC(=O)C1=CC=CC=C1NC2=NC(=NC=C2Cl)NC3=C(C=C(C=C3)N4CCOCC4)OC
# Procedure, shortened: as §1
# defactinib = compound: CNC(=O)c1ccc(Nc2ncc(C(F)(F)F)c(NCc3nccnc3N(C)S(C)(=O)=O)n2)cc1 [defactinib]
# Procedure, shortened: as §1
# [2] = compound: CNc1nc(-c2ccc3c(N)n[nH]c3c2)cc(N2C[C@@H](C(=O)NC3CCCCC3)CC[C@H]2C)n1
# Procedure, shortened: as §1
# encorafenib = compound: COC(=O)N[C@@H](C)CNc1nccc(-c2cn(C(C)C)nc2-c2cc(Cl)cc(NS(C)(=O)=O)c2F)n1 [encorafenib]
# Procedure, shortened: as §1
# [3] = compound: COC(=O)[C@H](CCSC)NC(=O)C1=C(C=C(C=C1)NC[C@H](CS)N)C2=CC=CC=C2
# Procedure, shortened: as §1
# alisertib = compound: COc1cc(Nc2ncc3c(n2)-c2ccc(Cl)cc2C(c2c(F)cccc2OC)=NC3)ccc1C(=O)O [alisertib]
# Procedure, shortened: as §1
# [4] = compound: COc1cc2nc(-c3cc(F)ccc3O)nc(N[C@@H]3CNC[C@H]3C(C)(C)O)c2cc1OC
# Procedure, shortened: as §1
# gefitinib = compound: COc1cc2ncnc(Nc3ccc(F)c(Cl)c3)c2cc1OCCCN1CCOCC1 [gefitinib]
# Procedure, shortened: as §1
# lapatinib = compound: CS(=O)(=O)CCNCc1ccc(-c2ccc3ncnc(Nc4ccc(OCc5cccc(F)c5)c(Cl)c4)c3c2)o1 [lapatinib]
# Procedure, shortened: as §1
# pictilisib = compound: CS(=O)(=O)N1CCN(Cc2cc3nc(-c4cccc5[nH]ncc45)nc(N4CCOCC4)c3s2)CC1 [pictilisib]
# Procedure, shortened: as §1
# crizotinib = compound: C[C@@H](Oc1cc(-c2cnn(C3CCNCC3)c2)cnc1N)c1c(Cl)ccc(F)c1Cl [crizotinib]
# Procedure, shortened: as §1
# [5] = compound: C[C@H](C1=CC=C(C=C1)C(=O)NC2=C3C=CNC3=NC=C2)N
# Procedure, shortened: as §1
# duvelisib = compound: C[C@H](Nc1ncnc2nc[nH]c12)c1cc2cccc(Cl)c2c(=O)n1-c1ccccc1 [duvelisib]
# Procedure, shortened: as §1
# gandotinib = compound: Cc1cc(Nc2cc(CN3CCOCC3)c3nc(C)c(Cc4ccc(Cl)cc4F)n3n2)n[nH]1 [gandotinib]
# Procedure, shortened: as §1
# tozasertib = compound: Cc1cc(Nc2cc(N3CCN(C)CC3)nc(Sc3ccc(NC(=O)C4CC4)cc3)n2)n[nH]1 [tozasertib]
# Procedure, shortened: as §1
# doramapimod = compound: Cc1ccc(-n2nc(C(C)(C)C)cc2NC(=O)Nc2ccc(OCCN3CCOCC3)c3ccccc23)cc1 [doramapimod]
# Procedure, shortened: as §1
# bafetinib = compound: Cc1ccc(NC(=O)c2ccc(CN3CC[C@H](N(C)C)C3)c(C(F)(F)F)c2)cc1Nc1nccc(-c2cncnc2)n1 [bafetinib]
# Procedure, shortened: as §1
# [6] = compound: Cc1cccc(CC(=O)N2CCc3c2ccc(-c2cn(C)c4ncnc(N)c24)c3F)n1
# Procedure, shortened: as §1
Target,log2 fold change (alvocidib),log2 fold change (Tubastatin A),log2 fold change [1],log2 fold change (defactinib),log2 fold change [2],log2 fold change (encorafenib),log2 fold change [3],log2 fold change (alisertib),log2 fold change [4],log2 fold change (gefitinib),log2 fold change (lapatinib),log2 fold change (pictilisib),log2 fold change (crizotinib),log2 fold change [5],log2 fold change (duvelisib),log2 fold change (gandotinib),log2 fold change (tozasertib),log2 fold change (doramapimod),log2 fold change (bafetinib),log2 fold change [6]
C2orf69 (UniProt Q8N8R5),inactive: -0.016,inactive: -0.026,inactive: 0.012,inactive: 0.002,inactive: -0.022,inactive: -0.077,inactive: 0.055,inactive: -0.056,inactive: -0.036,inactive: 0,inactive: 0.033,inactive: -0.017,inactive: 0.017,inactive: -0.036,inactive: -0.007,inactive: 0.068,inactive: 0.022,inactive: 0.022,inactive: 0.06,inactive: -0.043
C3 (UniProt P01024),inactive: -0.027,inactive: 0.051,inactive: 0.041,inactive: 0.01,inactive: 0.008,inactive: 0,inactive: 0.054,inactive: -0.031,inactive: -0.005,inactive: 0.05,inactive: 0.011,inactive: -0.01,inactive: 0.042,inactive: -0.095,inactive: -0.073,inactive: 0.044,inactive: 0.068,inactive: -0.006,inactive: 0.019,inactive: 0.019
CANX isoform 2 (UniProt P27824),inactive: -0.024,inactive: 0.05,inactive: -0.006,inactive: 0.002,inactive: -0.003,inactive: 0.027,inactive: -0.015,inactive: -0.008,inactive: 0.023,inactive: 0.008,inactive: 0.018,inactive: 0.037,inactive: -0.002,inactive: -0.037,inactive: 0.015,inactive: 0.026,inactive: 0.015,inactive: 0.006,inactive: 0.017,inactive: 0.052
C1QBP (UniProt Q07021),inactive: 0.025,inactive: 0.133,inactive: 0.01,inactive: 0.023,inactive: -0.011,inactive: -0.006,inactive: -0.065,inactive: 0.033,inactive: -0.018,inactive: -0.001,inactive: 0.019,inactive: 0.047,inactive: 0.019,inactive: 0.024,inactive: 0,inactive: -0.026,inactive: -0.007,inactive: 0.004,inactive: -0.009,inactive: -0.068
C12orf65 (UniProt Q9H3J6),inactive: 0.022,inactive: 0.027,inactive: 0.001,inactive: 0.026,inactive: -0.056,inactive: 0.007,inactive: 0.018,inactive: -0.102,inactive: -0.004,inactive: -0.065,inactive: 0.037,inactive: 0,inactive: 0.065,inactive: 0.03,inactive: -0.087,inactive: -0.013,inactive: -0.053,inactive: 0.05,inactive: -0.117,inactive: 0.063
CAPNS1 (UniProt P04632),inactive: 0.021,inactive: -0.022,inactive: 0.032,inactive: 0.027,inactive: -0.005,inactive: 0.022,inactive: -0.129,inactive: -0.012,inactive: -0.051,inactive: -0.062,inactive: 0.064,inactive: 0.024,inactive: 0.047,inactive: -0.21,inactive: -0.015,inactive: 0.15,inactive: -0.042,inactive: 0.079,inactive: 0.016,inactive: 0.005
CAMKK1 isoform 2 (UniProt Q8N5S9),inactive: 0.088,inactive: -0.167,active: 0.305,inactive: 0.051,inactive: -0.118,inactive: 0.014,inactive: 0.126,inactive: -0.033,inactive: -0.048,inactive: 0.03,inactive: 0.061,inactive: -0.074,inactive: -0.023,inactive: 0.032,inactive: -0.069,active: 0.424,inactive: -0.067,inactive: 0.016,inactive: -0.021,inactive: -0.033
CAMLG (UniProt P49069),inactive: 0.051,inactive: -0.037,inactive: 0.044,inactive: 0.067,inactive: -0.012,inactive: 0.09,inactive: -0.13,inactive: 0.136,inactive: 0.006,inactive: 0.028,inactive: 0.009,inactive: -0.039,inactive: 0.014,inactive: 0.179,inactive: -0.001,inactive: -0.058,inactive: -0.037,inactive: -0.005,inactive: 0,inactive: -0.12
C5orf22 (UniProt Q49AR2),inactive: 0.003,inactive: 0.011,inactive: -0.005,inactive: -0.012,inactive: -0.008,inactive: -0.005,inactive: 0.033,inactive: 0,inactive: -0.007,inactive: 0.021,inactive: 0.02,inactive: 0.004,inactive: 0.015,inactive: -0.01,inactive: 0.011,inactive: -0.012,inactive: -0.016,inactive: -0.003,inactive: 0.004,inactive: 0.018
C7orf50 (UniProt Q9BRJ6),inactive: 0.014,inactive: -0.039,inactive: -0.063,inactive: -0.012,inactive: -0.105,inactive: 0.027,inactive: -0.008,inactive: 0.044,inactive: -0.011,inactive: 0.038,inactive: -0.012,inactive: 0.116,inactive: -0.036,inactive: -0.021,inactive: 0.09,inactive: -0.03,inactive: 0.004,inactive: 0.019,inactive: -0.092,inactive: 0.038
CAPN1 (UniProt P07384),inactive: -0.041,inactive: 0.007,inactive: 0.002,inactive: 0.032,inactive: 0.011,inactive: 0.024,inactive: -0.103,inactive: 0.019,inactive: -0.012,inactive: 0,inactive: 0.03,inactive: 0.018,inactive: 0.016,inactive: 0.021,inactive: 0.004,inactive: 0.058,inactive: -0.036,inactive: 0.119,inactive: 0.078,inactive: -0.025
BUB1B isoform 3 (UniProt O60566),inactive: -0.032,inactive: -0.122,inactive: 0.018,inactive: -0.012,inactive: 0.018,inactive: 0.033,inactive: 0.018,inactive: 0.002,inactive: 0.011,inactive: -0.005,inactive: 0.009,inactive: -0.038,inactive: -0.059,inactive: 0.007,inactive: 0.024,inactive: -0.04,inactive: -0.01,inactive: 0.019,inactive: -0.029,inactive: 0.035
CACYBP (UniProt Q9HB71),inactive: -0.004,inactive: 0.058,inactive: -0.001,inactive: -0.054,inactive: 0.011,inactive: -0.038,inactive: -0.039,inactive: 0.008,inactive: 0.011,inactive: 0.003,inactive: 0.004,inactive: 0.012,inactive: 0.032,inactive: -0.029,inactive: 0.018,inactive: 0.023,inactive: -0.031,inactive: -0.012,inactive: 0.066,inactive: -0.013
C12orf45 (UniProt Q8N5I9),inactive: -0.13,inactive: 0.007,inactive: 0.004,inactive: -0.042,inactive: 0.036,inactive: 0.05,inactive: -0.06,inactive: 0.016,inactive: 0.01,inactive: 0.011,inactive: -0.027,inactive: -0.031,inactive: 0.042,active: -0.269,inactive: -0.014,inactive: 0.148,inactive: -0.044,inactive: -0.023,inactive: 0.001,inactive: 0.072
C19orf53 (UniProt Q9UNZ5),inactive: 0.032,inactive: -0.025,inactive: -0.056,inactive: -0.01,inactive: 0.103,inactive: -0.017,inactive: -0.041,inactive: 0.004,inactive: -0.068,inactive: 0.021,inactive: -0.001,inactive: 0.007,inactive: -0.009,inactive: 0.094,inactive: -0.043,inactive: -0.092,inactive: 0.02,inactive: 0.009,inactive: 0.006,inactive: -0.044
C1orf50 (UniProt Q9BV19),inactive: 0.001,inactive: 0.039,inactive: -0.056,inactive: 0.052,inactive: 0.013,inactive: 0.035,inactive: -0.034,inactive: -0.126,inactive: -0.02,inactive: -0.189,inactive: 0.051,inactive: -0.108,inactive: 0.021,inactive: 0.069,inactive: -0.091,inactive: 0,inactive: 0.095,inactive: -0.033,inactive: -0.116,inactive: -0.02

# At a glance, part of the list above.
Target,log2 fold change (alvocidib),log2 fold change (Tubastatin A),log2 fold change [1],log2 fold change (defactinib),log2 fold change [2],log2 fold change (encorafenib),log2 fold change [3],log2 fold change (alisertib),log2 fold change [4],log2 fold change (gefitinib),log2 fold change (lapatinib),log2 fold change (pictilisib),log2 fold change (crizotinib),log2 fold change [5],log2 fold change (duvelisib),log2 fold change (gandotinib),log2 fold change (tozasertib),log2 fold change (doramapimod),log2 fold change (bafetinib),log2 fold change [6]
CAMKK1 isoform 2 (UniProt Q8N5S9),inactive: 0.088,inactive: -0.167,active: 0.305,inactive: 0.051,inactive: -0.118,inactive: 0.014,inactive: 0.126,inactive: -0.033,inactive: -0.048,inactive: 0.03,inactive: 0.061,inactive: -0.074,inactive: -0.023,inactive: 0.032,inactive: -0.069,active: 0.424,inactive: -0.067,inactive: 0.016,inactive: -0.021,inactive: -0.033
CAMLG (UniProt P49069),inactive: 0.051,inactive: -0.037,inactive: 0.044,inactive: 0.067,inactive: -0.012,inactive: 0.09,inactive: -0.13,inactive: 0.136,inactive: 0.006,inactive: 0.028,inactive: 0.009,inactive: -0.039,inactive: 0.014,inactive: 0.179,inactive: -0.001,inactive: -0.058,inactive: -0.037,inactive: -0.005,inactive: 0,inactive: -0.12
C5orf22 (UniProt Q49AR2),inactive: 0.003,inactive: 0.011,inactive: -0.005,inactive: -0.012,inactive: -0.008,inactive: -0.005,inactive: 0.033,inactive: 0,inactive: -0.007,inactive: 0.021,inactive: 0.02,inactive: 0.004,inactive: 0.015,inactive: -0.01,inactive: 0.011,inactive: -0.012,inactive: -0.016,inactive: -0.003,inactive: 0.004,inactive: 0.018
C7orf50 (UniProt Q9BRJ6),inactive: 0.014,inactive: -0.039,inactive: -0.063,inactive: -0.012,inactive: -0.105,inactive: 0.027,inactive: -0.008,inactive: 0.044,inactive: -0.011,inactive: 0.038,inactive: -0.012,inactive: 0.116,inactive: -0.036,inactive: -0.021,inactive: 0.09,inactive: -0.03,inactive: 0.004,inactive: 0.019,inactive: -0.092,inactive: 0.038

# — the supplement of paper PMC10849652
